From patent US20040265859A1
Results are given in words; binding and its absence hold for the method and conditions named. Some entries that bind do so weakly or less than the wild type. Tags and fused reporters may be left off the sequences shown.

Chains of the proteins cited; added tags and fusions are not shown. Residues count along the entry.
UniProt P16144, residues 28-1822: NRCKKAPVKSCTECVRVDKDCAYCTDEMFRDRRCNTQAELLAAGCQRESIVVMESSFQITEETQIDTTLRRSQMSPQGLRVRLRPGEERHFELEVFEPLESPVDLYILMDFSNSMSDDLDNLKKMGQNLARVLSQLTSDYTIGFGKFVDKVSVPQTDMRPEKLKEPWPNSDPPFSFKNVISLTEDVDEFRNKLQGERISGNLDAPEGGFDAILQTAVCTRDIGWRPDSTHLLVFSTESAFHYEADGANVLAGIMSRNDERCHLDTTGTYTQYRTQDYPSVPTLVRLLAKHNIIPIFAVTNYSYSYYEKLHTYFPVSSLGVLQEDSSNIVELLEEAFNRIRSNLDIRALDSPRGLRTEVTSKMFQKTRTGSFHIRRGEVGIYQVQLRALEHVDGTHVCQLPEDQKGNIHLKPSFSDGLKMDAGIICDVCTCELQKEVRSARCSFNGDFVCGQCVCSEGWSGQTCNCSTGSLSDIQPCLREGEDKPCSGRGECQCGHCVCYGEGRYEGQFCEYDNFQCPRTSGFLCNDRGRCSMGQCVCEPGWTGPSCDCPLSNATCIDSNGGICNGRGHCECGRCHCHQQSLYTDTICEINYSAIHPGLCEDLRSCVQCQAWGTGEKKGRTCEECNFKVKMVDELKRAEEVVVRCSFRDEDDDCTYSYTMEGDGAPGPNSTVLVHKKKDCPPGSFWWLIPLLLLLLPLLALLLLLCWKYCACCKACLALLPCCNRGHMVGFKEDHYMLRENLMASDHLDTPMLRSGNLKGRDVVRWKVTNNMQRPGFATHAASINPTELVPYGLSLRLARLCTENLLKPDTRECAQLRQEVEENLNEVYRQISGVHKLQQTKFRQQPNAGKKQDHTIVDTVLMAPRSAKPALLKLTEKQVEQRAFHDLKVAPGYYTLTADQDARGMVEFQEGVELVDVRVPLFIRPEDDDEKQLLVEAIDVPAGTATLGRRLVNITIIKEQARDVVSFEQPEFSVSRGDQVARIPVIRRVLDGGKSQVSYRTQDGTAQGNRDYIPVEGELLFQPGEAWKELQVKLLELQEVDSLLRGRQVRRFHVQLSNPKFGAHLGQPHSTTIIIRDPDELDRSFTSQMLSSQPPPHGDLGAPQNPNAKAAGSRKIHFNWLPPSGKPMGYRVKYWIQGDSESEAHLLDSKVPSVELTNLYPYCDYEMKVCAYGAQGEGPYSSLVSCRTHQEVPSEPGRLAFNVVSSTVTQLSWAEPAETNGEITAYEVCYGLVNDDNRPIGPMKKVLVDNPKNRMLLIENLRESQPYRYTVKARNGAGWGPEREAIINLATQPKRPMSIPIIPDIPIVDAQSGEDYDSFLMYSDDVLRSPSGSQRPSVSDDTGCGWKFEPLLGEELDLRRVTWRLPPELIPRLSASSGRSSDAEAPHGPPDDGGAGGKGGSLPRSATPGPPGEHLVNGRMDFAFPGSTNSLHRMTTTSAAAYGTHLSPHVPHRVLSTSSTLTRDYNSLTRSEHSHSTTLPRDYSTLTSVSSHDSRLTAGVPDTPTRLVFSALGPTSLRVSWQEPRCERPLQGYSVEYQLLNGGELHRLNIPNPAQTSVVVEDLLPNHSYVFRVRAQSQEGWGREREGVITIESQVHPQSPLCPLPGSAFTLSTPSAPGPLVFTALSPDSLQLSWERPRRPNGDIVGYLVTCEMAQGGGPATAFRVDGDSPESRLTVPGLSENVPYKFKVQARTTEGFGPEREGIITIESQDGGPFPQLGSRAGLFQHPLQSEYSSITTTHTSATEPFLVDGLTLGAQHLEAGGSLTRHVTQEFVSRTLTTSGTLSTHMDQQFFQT

What was measured:
[1] = target: β4 integrin, immunopurified (from MDA-MB-231L cells) (human) (UniProt P16144); assay: ELISA and pull-down assays, data not shown
[2] = target: β4 integrin, immunopurified (from MDA-MB-231L cells) (human) (UniProt P16144); assay: ELISA, GST-HA … 100 ng/ml on dishes coated at 10 µg/ml, anti-GST detection
[3] = target: β4 integrin, immunopurified (from MDA-MB-231L cells) (human) (UniProt P16144); assay: pull-down, Western blot
[4] = target: β4 integrin, immunopurified (from MDA-MB-231L cells) (human) (UniProt P16144); assay: reverse pull-down, Western blot
[5] = target: β4 integrin, immunopurified (from MDA-MB-231L cells) (human) (UniProt P16144); assay: pull-down, Western blot with α-GST pAb(B-14)
[6] = target: β4 integrin on MDA-MB-231 human breast cancer cells (human) (UniProt P16144); assay: FACS on MDA-MB-231 cells, 100 ng/ml
[7] = target: β4 integrin on MDA-MB-231 human breast cancer cells (human) (UniProt P16144); assay: FACS on MDA-MB-231 cells, α-GST antibody detection
[8] = target: β4 integrin, immunopurified (from MDA-MB-231L cells) (human) (UniProt P16144); assay: ELISA, immunopurified β4 integrin coated at 10 µg/ml, increasing concentrations of the polypeptide
[9] = target: β4 integrin, immunopurified (from MDA-MB-231L cells) (human) (UniProt P16144); assay: ELISA with different divalent cations
[10] = target: β4 integrin, immunopurified (from MDA-MB-231L cells) (human) (UniProt P16144); assay: ELISA, phosphate-buffered saline + 1 mm MnCl2
[11] = target: β4 integrin, immunopurified (from MDA-MB-231L cells) (human) (UniProt P16144); assay: ELISA on coated integrin
[12] = target: β4 integrin, immunopurified (from MDA-MB-231L cells) (human) (UniProt P16144); assay: pull-down, Western blot with α-β4 pAbH101

binding [1] | binding [2] | binding [3] | binding [4] | binding [5] | binding [6] | binding [7] | binding [8] | binding [9] | binding [10] | binding [11] | binding [12] | Binder
binds |  |  |  |  |  |  |  |  |  |  |  | GFSRVSSGGS (peptide, not shown: a dimerising Fc or GST; small tags and cut ends) [GST-β4BMhCLCA2(35)-HA (GST fusion of the β4-binding motif … of the 35-kDa hCLCA2)]
 | binds | binds | binds | binds | binds | binds | binds | binds | binds | binds | binds | AFSRISSGTG (peptide, not shown: a dimerising Fc or GST; small tags and cut ends) [GST-β4BMhCLCA2(90)-HA (GST fusion of the β4-binding motif … of the 90-kDa hCLCA2)]
